The supplement of paper PMC8866396
± gives the standard deviation of the averaged measurements. The list shows a part of the results. This data set is noisy: repeats of one test often differ as much as different tests do.

How the values were obtained:
IL-6-GFP PC-9GR = test: IL-6-GFP fluorescence relative to DMSO control (fraction of control); higher = more IL-6-GFP expression; settings: compound concentration: 10 uM; treatment time: 48 h
Description: (§1)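 IL-6-GFP-overexpressing PC-9 and PC-9GR EGFR-mutant lung cancer cells (3000 cells/well, 96-well) were treated for 48 h with each compound of the Selleck L2000 library at 10 uM. IL-6-GFP fluorescence was read on a high-content screening system, and viability by CCK-8 absorbance on a parallel plate set. Each value was normalised as compound well / DMSO control well; two independent replicates.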

IL-6-GFP PC-9 = test: as above; settings: compound concentration: 10 uM; treatment time: 48 h
Description: as §1

Row | Compound | IL-6-GFP fluorescence (IL-6-GFP PC-9GR) | IL-6-GFP fluorescence (IL-6-GFP PC-9)
1 | Cn1cc(C2=C(c3cccc(N)c3)C(=O)NC2=O)c2ccccc21 | 0.972 ± 0.33 | 0.579 ± 0.27
2 | Cc1c(-c2ccc(-c3ccccc3F)cc2)nc2ccc(F)cc2c1C(=O)O [Brequinar] | 1.22 ± 0.45 | 0.745 ± 0.53
3 | Cc1ccc(Cl)c(Nc2ccccc2C(=O)[O][Na])c1Cl [Meclofenamate Sodium] | 0.598 ± 0.074 | 0.913 ± 0.092
4 | CC1CC2C3CCC4=CC(=O)C=CC4(C)C3(F)C(O)CC2(C)C1(O)C(=O)CO (centres undefined) [Betamethasone] | 0.82 ± 0.24 | 0.905 ± 0.18
5 | NC(=O)c1cccc2cn(-c3ccc(C4CCCNC4)cc3)nc12 (centres undefined) [Niraparib (MK-4827)] | 1 ± 0.092 | 0.868 ± 0.12
6 | CC(Oc1cc(-c2cnn(C3CCNCC3)c2)cnc1N)c1c(Cl)ccc(F)c1Cl [(S)-crizotinib] | 1.02 ± 0.031 | 1 ± 0.18
7 | COc1c(-c2ccc3cc(NS(C)(=O)=O)ccc3c2)cc(-n2ccc(=O)[nH]c2=O)cc1C(C)(C)C [Dasabuvir(ABT-333)] | 0.997 ± 0.1 | 0.857 ± 0.072
8 | CCCCCCCCCCCCCCCCCCOP(=O)([O-])OC1CC[N+](C)(C)CC1 [Perifosine (KRX-0401)] | 0.702 ± 0.18 | 0.641 ± 0.029
9 | Cc1nnc(C(=O)NC(C)(C)c2nc(C(=O)NCc3ccc(F)cc3)c([O-])c(=O)n2C)o1.[K+] [Raltegravir potassium] | 1.07 ± 0.35 | 0.842 ± 0.23
10 | S=P(N1CC1)(N1CC1)N1CC1 [Thiotepa] | 0.715 ± 0.21 | 0.835 ± 0.094
11 | CC1(C)C2CCC1(C)C(O)C2 (centres undefined) [Borneol] | 1.01 ± 0.12 | 0.834 ± 0.31
12 | O=c1[nH]c(=O)n(C2CCCO2)cc1F (centres undefined) | 0.954 ± 0.025 | 0.692 ± 0.37
13 | CCCC(=O)OC1(C(=O)CO)CCC2C3CCC4=CC(=O)CCC4(C)C3C(O)CC21C (centres undefined) [Hydrocortisone butyrate] | 0.859 ± 0.057 | 0.8713 ± 0.0047
14 | O=C(Nc1ccc(O)cc1)c1ccccc1O [Osalmid] | 0.877 ± 0.29 | 0.474 ± 0.087
15 | CCC1=CC2CN(C1)Cc1c([nH]c3ccccc13)C(C(=O)OC)(c1cc3c(cc1OC)N(C)C1C(O)(C(=O)OC)C(OC(C)=O)C4(CC)C=CCN5CCC31C54)C2.O=C(O)C(O)C(O)C(=O)O.O=C(O)C(O)C(O)C(=O)O (centres undefined) [Vinorelbine Tartrate] | 0.747 ± 0.2 | 1.15 ± 0.14
16 | CCC1(O)CC2CN(CCc3c([nH]c4ccccc34)C(C(=O)OC)(c3cc4c(cc3OC)N(C)C3C(O)(C(=O)OC)C(OC(C)=O)C5(CC)C=CCN6CCC43C65)C2)C1.O=S(=O)(O)O (centres undefined) [Vinblastine sulfate] | 0.651 ± 0.16 | 1.12 ± 0.14
17 | CCCCNC(=O)NS(=O)(=O)c1ccc(C)cc1 [Tolbutamide] | 0.534 ± 0.42 | 0.789 ± 0.22
18 | CC12CCC(=O)C=C1CCC1C2C(O)CC2(C)C1CCC2(O)C(=O)CO (centres undefined) [Hydrocortisone] | 0.739 ± 0.28 | 0.787 ± 0.099
19 | O=c1c(-c2ccc(O)cc2)coc2cc(O)cc(O)c12 [Genistein] | 1.01 ± 0.11 | 1.07 ± 0.29
20 | Cn1c(=O)cc(N2CCCC(N)C2)n(Cc2cc(F)ccc2C#N)c1=O (centres undefined) [Trelagliptin] | 0.973 ± 0.099 | 0.895 ± 0.047
21 | Cn1c(=O)cc(N2CCCC(N)C2)n(Cc2ccccc2C#N)c1=O (centres undefined) [Alogliptin] | 0.799 ± 0.02 | 0.804 ± 0.055
22 | CC(C)(C)OC(=O)NC1CCCCC/C=C\C2CC2(C(=O)NS(=O)(=O)C2CC2)NC(=O)C2CC(OC(=O)N3Cc4cccc(F)c4C3)CN2C1=O (centres undefined) [Danoprevir (ITMN-191)] | 0.891 ± 0.016 | 0.8397 ± 0.0041
23 | CC(C)=CCCC(C)(OC1OC(CO)C(O)C(O)C1O)C1CCC2(C)C1C(O)CC1C3(C)CCC(O)C(C)(C)C3C(OC3OC(CO)C(O)C(O)C3O)CC12C (centres undefined) [Ginsenoside Rg1] | 0.885 ± 0.014 | 0.902 ± 0.051
24 | O=C(O)c1cc(O)c(O)c(O)c1 [Gallic acid] | 0.83 ± 0.32 | 0.711 ± 0.41
25 | CC1(C)CCC(CN2CCN(c3ccc(C(=O)NS(=O)(=O)c4ccc(NCC5CCOCC5)c([N+](=O)[O-])c4)c(Oc4cnc5[nH]ccc5c4)c3)CC2)=C(c2ccc(Cl)cc2)C1 [Venetoclax (ABT-199, GDC-0199)] | 0.804 ± 0.087 | 0.84152 ± 0.00068
26 | C=CC1CN2CCC1CC2C(O)c1ccnc2ccc(OC)cc12.Cl.O.O (centres undefined) [Quinine HCl Dihydrate] | 0.935 ± 0.051 | 0.82 ± 0.082
27 | NC(=S)N/N=C/c1ncccc1N [Triapine] | 2.38 ± 0.7 | 2.04 ± 0.037

Reformatted: 2 of the compounds above
Cn1c(=O)cc(N2CCCC(N)C2)n(Cc2ccccc2C#N)c1=O (centres undefined) [Alogliptin]
  IL-6-GFP fluorescence (IL-6-GFP PC-9GR): 0.799 ± 0.02
  IL-6-GFP fluorescence (IL-6-GFP PC-9): 0.804 ± 0.055
CC(C)=CCCC(C)(OC1OC(CO)C(O)C(O)C1O)C1CCC2(C)C1C(O)CC1C3(C)CCC(O)C(C)(C)C3C(OC3OC(CO)C(O)C(O)C3O)CC12C (centres undefined) [Ginsenoside Rg1]
  IL-6-GFP fluorescence (IL-6-GFP PC-9GR): 0.885 ± 0.014
  IL-6-GFP fluorescence (IL-6-GFP PC-9): 0.902 ± 0.051
